Data on one molecule can be found in patent US20140308201A1.

By UniProt entry, the sequences of proteins in these tests, tags left out. Where a name states a change or a piece, a line headed by the entry shows the natural chain unless it says otherwise.
UniProt P02745: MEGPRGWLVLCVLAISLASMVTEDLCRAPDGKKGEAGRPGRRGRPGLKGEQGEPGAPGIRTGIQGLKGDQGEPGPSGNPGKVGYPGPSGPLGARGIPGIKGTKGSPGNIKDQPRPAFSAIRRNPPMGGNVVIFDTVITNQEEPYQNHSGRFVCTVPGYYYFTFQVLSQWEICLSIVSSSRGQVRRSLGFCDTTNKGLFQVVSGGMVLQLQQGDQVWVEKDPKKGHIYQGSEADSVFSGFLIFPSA

Results are given in words; binding and its absence hold for the method and conditions named. Some results given as binding are weak or reduced against the parent protein; the word gives no strength.

The target of experiment [1] is complement factor Clq (UniProt P02745). Kind of experiment: ELISA: antibody coated on the plate in a dilution series (dose axis), constant C1q added, detected with anti-human C1q-HRP, OD 450 nm [B]. For orientation: In an ELISA, binding on a coated surface is turned into a signal by an enzyme label.
Experiment [2] has the same target. Kind of experiment: ELISA, antibody coated in serial dilution, constant C1q, anti-C1q-HRP.

B1: mAb12433 (antibody, human IgG1, kappa, V domains shown)
VH: QVQLVQSGAEVKKPGESLKISCKGSGYSFTNYYIHWVRQMPGKGLEWMGAIYPDNSDTTYSPSFQGQVTISADKSISTAYLQWSSLKASDTAMYYCARGADIWGQGTLVTVSS
VL: DIQMTQSPSSLSASVGDRVTITCRASQDIDPYLSNWYQQKPGKAPKLLIYDASNLQSGVPSRFSGSGSGTDFTLTISSLQPEDFATYYCQQTTSHPYTFGQGTKVEIKR
For the molecule B1, the binding entry with complement factor Clq [1] and in the experiment with complement factor Clq [2] was “binds” in each case.
